Reference: publication PMC4169579, “Proteolytic Activity of Prostate-Specific Antigen (PSA) towards Protein Substrates and Effect of Peptides Stimulating PSA Activity” (PLoS ONE, 2014)
Results are given in words; binding and its absence hold for the method and conditions named.

Amino acid sequences for entries named in this document (tags omitted). Residues count along the entry.
UniProt P07288, residues 25-261: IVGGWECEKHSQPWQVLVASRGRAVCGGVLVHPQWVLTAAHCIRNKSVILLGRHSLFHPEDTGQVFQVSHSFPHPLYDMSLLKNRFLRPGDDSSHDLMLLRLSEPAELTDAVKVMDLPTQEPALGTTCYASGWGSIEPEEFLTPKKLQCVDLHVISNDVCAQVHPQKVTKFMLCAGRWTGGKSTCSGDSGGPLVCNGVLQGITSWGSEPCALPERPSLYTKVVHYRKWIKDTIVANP

Target: Prostate-specific antigen (PSA or kallikrein-related peptidase-3, KLK3), major form of active PSA (isoform PSA-B) (human) (UniProt P07288)
Assay: SPR; Biacore T100; PSA amine-coupled to a CM5 chip (2000-3900 RU); alpha-chymotrypsin surface as reference, subtracted; peptides 1.2-600 uM flowed in PBS pH 7.4 (6.7 mM PO4, 0.15 M NaCl), 40 ul/min, 25 C, contact 60 s, dissociation 180 s; Steady State Affinity model; both purified

B1: inactive derivative of peptide B2-NH2 (B2-NH2-control) (peptide)
peptide: CVFAHNADALVC
modifications: disulfide bridge between cysteines 1-12
binding: no binding (tested: 1.2–600 µM)
